In this series the test system is HUVEC cells. As to the kind of experiment: Immunofluorescence localization of labeled peptide in HUVEC cells. The format is cell-based, human.

As to “KKYFGRSLELYRELDLNSVLLKLGIK [SEQ ID NO: 57, 26-amino acid peptide representing amino acids 108-133 of RNASET2]”, where the note is “HUVE cells, 10 minutes, 2 and 8 hours”, the “cellular localization of green fluorescent labeled peptide” value is reported as “observed in the cytoplasm surrounding the nucleus”. For the same sequence, the co-localization with angiogenin result (HUVEC cells incubated with peptide and angiogenin, 10 min, 2 h, 8 h) is reported as “co-localization of both molecules was observed”.

Source of the values: patent US20160340659A1, “ACTIN BINDING PEPTIDES AND COMPOSITIONS COMPRISING SAME FOR INHIBITING ANGIOGENESIS AND TREATING MEDICAL CONDITIONS ASSOCIATED WITH SAME” (YISSUM RESEARCH AND DEVELOPMENT COMPANY OF THE HEBREW …, priority 2014, published 2016).
